Measurements published in patent publication EP1282680B1, “COMPOSITIONS COMPRISING CYCLODEXTRIN” (THE PROCTER & GAMBLE COMPANY, priority 2000, dated 2001).
For at least one compound, name, drawing or mass did not settle the structure.

Experiment: Complexation constant with cyclodextrin, spectral displacement method with phenolphthalein
Assay type: binding
Conditions: unit not given, the text gives complexation constants in M^-1
Description: A spectral displacement method with phenolphthalein is used to determine the complexation constant between cyclodextrin and a given material, especially for surfactants. This method of determining complexation constants with cyclodextrins is described in detail in the following references: Sasaki, KJ., Christian, S.D., and Tucker, E.E., "Study of the Stability of 1:1 Complexes Between Aliphatic Alcohols and b-Cyclodextrins in Aqueous Solution," Fluid Phase Equilibria, Vol. 49, (Amsterdam, Elsevier Science Publishers, 1989), pp. 281-89. Further information regarding spectral displacement methods can be found in other references, e.g. in Wilson, L.D., Siddall, S.R, and Verrall RE., "A Spectral Displacement Study of the Binding Constants of Cyclodextrin-Hydrocarbon and - Fluorocarbon Surfactant Inclusion Complexes," Canadian Journal of Chemistry, Vol. 75, (NRC Canada 1997), pp. 927-933. […]
The complexation constant of a given material with cyclodextrin is obtained by an absorbance measurement in the visible region at 550 nm that is performed with a spectrophotometer at room temperature. […] Complexation constants of cyclodextrin-compatible and/or cyclodextrin-incompatible materials arc determined with using the free, uncomplexed phenolphthalein concentration obtained by absorbance at 550 nm.

CCCCCCCCCCCCCCCC[n+]1ccccc1 [Cetyl pyridinium chloride]
Complexation Constant (K): about 48000
